At least one peptide structure holds a part that was inferred or is arguable (an end, a ring closure or a residue). Marks after values point to notes of the source that are not given here. Ends that are not written are not given here. Peptide text beside a SMILES is read from it.
Each compound was assayed on female NOD mice (assay: Treatment of NOD mice with p277 or its fragments (treated at 7 weeks, status at 40 weeks)). Details: 50 µg peptide in oil s.c. at 7 weeks of age.
Assay type: in vivo

Row | Compound | Status at 40 Weeks: Diabetes, Death %
1 | CC[C@H](C)[C@H](NC(=O)[C@H](CS)NC(=O)[C@H](CCCNC(=N)N)NC(=O)[C@H](CC(C)C)NC(=O)[C@H](CC(C)C)NC(=O)[C@H](C)NC(=O)[C@H](CS)NC(=O)CNC(=O)CNC(=O)CNC(=O)[C@H](CC(C)C)NC(=O)[C@@H](N)C(C)C)C(=O)O [p277.N] (H-VLGGGCALLRCI-OH) | 50* %
2 | CC[C@H](C)[C@H](NC(=O)[C@H](CS)NC(=O)[C@H](CCCNC(=N)N)NC(=O)[C@H](CC(C)C)NC(=O)[C@H](CC(C)C)NC(=O)[C@H](C)NC(=O)[C@H](CS)NC(=O)CNC(=O)CNC(=O)CNC(=O)[C@H](CC(C)C)NC(=O)[C@@H](N)C(C)C)C(=O)N1CCC[C@H]1C(=O)N[C@@H](C)C(=O)N[C@@H](CC(C)C)C(=O)N[C@@H](CC(=O)O)C(=O)N[C@@H](CO)C(=O)N[C@@H](CC(C)C)C(=O)N[C@H](C(=O)N1CCC[C@H]1C(=O)N[C@@H](C)C(=O)N[C@@H](CC(N)=O)C(=O)N[C@@H](CCC(=O)O)C(=O)N[C@@H](CC(=O)O)C(=O)O)[C@@H](C)O [p277] (H-VLGGGCALLRCIPALDSLTPANED-OH) | 0* %
3 | NEDQKIGIEIIKRTLKI [p278, Asn-Glu-Asp-Gln-Lys-Ile-Gly-Ile-Glu-Ile-Ile-Lys-Arg-Thr-Leu-Lys-Ile] | 90%
4 | PALDSLTPANED [p277.C] | 40* %

What follows are compounds tested on female NOD mice (assay: not given). Details: 100 µg peptide in IFA s.c. at 3 months.

Row | Compound | Diabetes at 6 months: Mortality (%)
5 | CC[C@H](C)[C@H](NC(=O)[C@H](CS)NC(=O)[C@H](CCCNC(=N)N)NC(=O)[C@H](CC(C)C)NC(=O)[C@H](CC(C)C)NC(=O)[C@H](C)NC(=O)[C@H](CS)NC(=O)CNC(=O)CNC(=O)CNC(=O)[C@H](CC(C)C)NC(=O)[C@@H](N)C(C)C)C(=O)N1CCC[C@H]1C(=O)N[C@@H](C)C(=O)N[C@@H](CC(C)C)C(=O)N[C@@H](CC(=O)O)C(=O)N[C@@H](CO)C(=O)N[C@@H](CC(C)C)C(=O)N[C@@H](CCCCN)C(=O)N1CCC[C@H]1C(=O)N[C@@H](C)C(=O)N[C@@H](CC(N)=O)C(=O)N[C@@H](CCC(=O)O)C(=O)N[C@@H](CC(=O)O)C(=O)O [p277(Lys^19)] (H-VLGGGCALLRCIPALDSLKPANED-OH) | 20
6 | CC[C@H](C)[C@H](NC(=O)[C@H](CS)NC(=O)[C@H](CCCNC(=N)N)NC(=O)[C@H](CC(C)C)NC(=O)[C@H](CC(C)C)NC(=O)[C@H](C)NC(=O)[C@H](CS)NC(=O)CNC(=O)CNC(=O)CNC(=O)[C@H](CC(C)C)NC(=O)[C@@H](N)C(C)C)C(=O)N1CCC[C@H]1C(=O)N[C@@H](C)C(=O)N[C@@H](CC(C)C)C(=O)N[C@@H](CC(=O)O)C(=O)N[C@@H](CO)C(=O)N[C@@H](CC(C)C)C(=O)N[C@H](C(=O)N1CCC[C@H]1C(=O)N[C@@H](C)C(=O)N[C@@H](CC(N)=O)C(=O)N[C@@H](CCC(=O)O)C(=O)N[C@@H](CC(=O)O)C(=O)O)[C@@H](C)O [p277] (H-VLGGGCALLRCIPALDSLTPANED-OH) | 10

— patent publication EP0820303B1, “PEPTIDE p277 ANALOGS, AND PHARMACEUTICAL COMPOSITIONS COMPRISING THEM FOR TREATMENT OR DIAGNOSIS OF DIABETES” (Yeda Research and Development Co. Ltd., priority 1994, dated 1996)
